# Data taken from PubChem BioAssay AID540276 (National Center for Advancing Translational Sciences (NCATS), 2011).
# “And” between values parts separate entries of the source, which are not always exact repeats. Equal values may be shown once. Screen size: about 300,000 compounds; about 5,400 (1.8%) were called active. The inconclusive results got no clear call from the source; some entries with a clear call stand among them for comparison. Calls follow the shape of the full dose curve; tested in HEK293 cells. Where the call is inconclusive, the potency comes from a doubtful curve fit.
# Experiment: qHTS for inhibitors of binding or entry into cells for Marburg Virus
# Settings: Marburg virus pseudotyped entry inhibition, cell reporter; activity change, negative = inhibition: at 37.8 µM (top of the series) unless noted
# % is scaled to controls: 0 for no effect and ±100 for the full control effect; potency is read from the fitted curve at half-maximal effect.
Compound,Potency,"activity change, negative = inhibition"
Cc1ccc(NC(=O)ON=C2CCCC2)cc1,active: 10 µM,–
Cc1cc(C(=O)CSc2nc(N)cc(=O)[nH]2)c(C)n1-c1ccc(OC(F)F)cc1,"inconclusive: 1.12 µM [inhibitor, full curve, poor fit]",–
C=CCn1c(Cc2nc3ccc(Cl)cc3[nH]2)n[nH]c1=S,–,inactive: -7.75%
COc1cc(OC)c2c(C)c(Cl)c(=O)oc2c1,–,inactive: 4.77%
CCCCCn1c(N)c(-c2nc3ccccc3s2)c2c([N+](=O)[O-])nn(CC)c(=O)c21,active: 2.91 µM,–
Nc1c(C(=O)Nc2nc3ccccc3s2)sc2nc(-c3cccs3)ccc12,active: 5.8 µM,–
CCOC1=NN(c2ncc(C(F)(F)F)cc2Cl)C(=O)C1,"inconclusive: 4.47 µM [activator, single point]",–
COCc1cc(C)nc(N2CCN(c3ccccc3)CC2)c1C#N,"inconclusive: 20.6 µM [inhibitor, single point]",–
Nc1ccc(NC(=O)c2ccccc2)c2c1C(=O)c1ccccc1C2=O,–,inactive: -0.649%
O=c1cc(NS(=O)(=O)c2ccccc2)nc(SCc2ccccc2Cl)[nH]1,"inconclusive: 11.2 µM [inhibitor, single point]",–
Cc1cc(/C=C2/SC(=S)N(c3cccc(C(F)(F)F)c3)C2=O)c(C)n1-c1cccnc1,"inconclusive: 1 µM [inhibitor, partial curve, poor fit]",–
O=C(Nc1ccccc1N1CCCC1)c1ccc(Cl)cc1Cl,"inconclusive: 7.08 µM [inhibitor, partial curve, poor fit]",–
CS/C(=N\S(=O)(=O)c1cccs1)Nc1ccc(Cl)cc1,"inconclusive: 0.112 µM [activator, full curve, poor fit]",–
COc1ccc(OCCNc2cc(Cl)ccc2[N+](=O)[O-])cc1,–,inactive: 0.677%
COc1ccc(NC(=O)C2CCN(Cc3cnn(-c4ccccc4)c3-n3cccc3)CC2)cc1OC,"inconclusive: 35.5 µM [inhibitor, single point]",–
COc1ccc(-c2nc(-c3ccc(O)cc3O)cs2)cc1OC,"inconclusive: 35.5 µM [inhibitor, single point]",–
CN(C)c1cccc(C(=O)NNC(=O)CSc2ccccc2)c1,–,inactive: 3.02% [at 46.1 µM]
CC(=O)Nc1nc2ccccc2n1Cc1ccccc1C,"inconclusive: 6.31 µM [inhibitor, partial curve, poor fit]",–
COc1ccccc1N1CCN(/N=C/c2cccc(Cl)c2)CC1,"inconclusive: 14.1 µM [activator, single point]",–
COCCCNC(=O)c1c[nH]c2ccc(S(=O)(=O)N3CCc4ccccc43)cc2c1=O,"inconclusive: 0.891 µM [inhibitor, full curve, poor fit]",–
Cc1ccc2[nH]c(-c3cccc(N)c3)cc2c1,"inconclusive: 0.146 µM [activator, full curve, poor fit]",–
COc1ccc(N(C)C(=O)C2CCN(S(=O)(=O)c3cccc4nonc34)CC2)cc1,"inconclusive: 0.794 µM [inhibitor, full curve, poor fit]",–

Compound,Potency,"activity change, negative = inhibition"
Cc1ccc(S(=O)(=O)N(C)CC(=O)NCC(=O)Nc2ccc(F)c(F)c2F)cc1,–,inactive: 2.49%
COc1ccccc1-c1nnc(SCC(=O)Nc2ccccc2F)o1,"inconclusive: 6.31 µM [activator, partial curve, poor fit]",–
Cc1cc(C(=O)COC(=O)Cn2cnc3c2c(=O)n(C)c(=O)n3C)c(C)n1C,"inconclusive: 0.326 µM [inhibitor, full curve, poor fit]",–
Cc1cccc(/C=N/NC(=O)NC23CC4CC(CC(C4)C2)C3)n1,"inconclusive: 35.5 µM [activator, single point]",–
CCCN(C(=O)CCOc1ccc(C(C)(C)C)cc1)c1c(N)n(Cc2ccccc2)c(=O)[nH]c1=O,–,inactive: 12.3%
Fc1ccc2c(c1)C1C=CCC1C(c1cc3c(cc1Br)OCO3)N2 (stereo not given),"inconclusive: 16.4 µM [inhibitor, single point]",–
C=CCn1c(=NC(=O)CC)n(C)c2ccccc21,"inconclusive: 3.16 µM [activator, partial curve, poor fit]",–
CCN(CC)S(=O)(=O)c1ccc2oc(Nc3ccc4c(c3)OCCO4)nc2c1,"inconclusive: 5.01 µM [inhibitor, full curve, poor fit]",–
COc1nnc(-c2ccccc2)s1,"inconclusive: 18.4 µM [activator, single point]",–
CC1CCN(CCCCOc2cccc(Br)c2)CC1,"inconclusive: 35.5 µM [inhibitor, partial curve, poor fit]",–
CCOC(=O)c1c(NC(=O)c2nc(SCC)ncc2Cl)sc2c1CCCC2,–,inactive: -0.258% [at 46.1 µM]
CCN(CC)S(=O)(=O)c1cccc(C(=O)N[C@H](C(=O)Nc2nc3ccccc3s2)C(C)C)c1,–,inactive: -20.2%
COc1cc(OC)cc(C(=O)NCC(=O)Nc2ccc(-c3ccccc3)cc2)c1,"inconclusive: 5.62 µM [inhibitor, full curve, poor fit]",–
COc1ccc(/C=C(/NC(=O)c2ccccc2OC)C(=O)Nc2ccc(C(=O)O)cc2)cc1,"inconclusive: 0.282 µM [activator, full curve, poor fit]",–
O=C(CN1C(=O)c2ccccc2C1=O)Nc1ccccc1C(=O)N1CCCC1,"inconclusive: 16.4 µM [activator, single point]",–
Cc1ccccc1Nc1c(-c2ccc(Cl)cc2)nc2c(C)cccn12,"inconclusive: 3.16 µM [inhibitor, partial curve, poor fit]",–
O=C(CN1CCCCC1)NNC(=O)c1cccc(Br)c1,–,inactive: -11.2% [at 46.1 µM]
COc1ccc(NC(=O)N2CCc3ccccc3C2)cc1,"inconclusive: 3.16 µM [activator, single point]",–
CC(C)c1ccc(NC(=O)C2CCN(S(=O)(=O)c3cccc4nonc34)CC2)cc1,"inconclusive: 35.5 µM [activator, single point]",–
O=C(C[n+]1cccc(CNC(=O)c2ccc(OC(F)F)cc2)c1)Nc1ccccc1Cl,"inconclusive: 0.501 µM [activator, partial curve, poor fit]",–
O=C(c1cc(-c2ccc(Cl)cc2)on1)N1CCOCC1,"inconclusive: 0.73 µM [activator, partial curve, poor fit]",–
Cc1cccc(C(=O)O/N=C(\N)c2ccc(Br)cc2)c1,–,inactive: 11.8%

# 3 compounds drawn at random from those above, as already listed:
Compound,Potency,"activity change, negative = inhibition"
CCOC(=O)c1c(NC(=O)c2nc(SCC)ncc2Cl)sc2c1CCCC2,–,inactive: -0.258% [at 46.1 µM]
Cc1ccc(S(=O)(=O)N(C)CC(=O)NCC(=O)Nc2ccc(F)c(F)c2F)cc1,–,inactive: 2.49%
COc1ccc(NC(=O)N2CCc3ccccc3C2)cc1,"inconclusive: 3.16 µM [activator, single point]",–

# Further structures.

Compound,Potency,"activity change, negative = inhibition"
COCCNC(=O)C(c1ccc(C)cc1)N(C(=O)CCC(=O)Nc1ccccn1)c1ccc(F)cc1 (stereo not given),"inconclusive: 35.5 µM [inhibitor, single point]",–
CC(=O)O/N=C/c1c(Cl)n(C)c2ccccc12,"inconclusive: 35.5 µM [activator, single point]",–
Cc1ccc(S(=O)(=O)N2CCN(C)CC2)c(C)c1N(C)S(=O)(=O)c1ccc(Cl)cc1,"inconclusive: 15.8 µM [inhibitor, single point]",–
COC(=O)c1cc2ccccn2c2c(C(=O)OC)c(C(=O)OC)cc1-2,"inconclusive: 35.5 µM [inhibitor, single point]",–
COc1cc(NC(=O)c2ccc3oc(=O)c(S(=O)(=O)c4ccccc4)cc3c2)cc(OC)c1,"inconclusive: 1.58 µM [inhibitor, partial curve, poor fit]",–
CCc1cc(C(=O)N(C)CC(=O)Nc2c(Cl)cccc2Cl)sc1C,"inconclusive: 0.562 µM [inhibitor, full curve]",–
COc1ccc(CSCC(=O)Nc2ccccc2SC)cc1,"inconclusive: 14.1 µM [inhibitor, single point]",–
Cc1ccc(Sc2c(CO)c(-c3ccccc3)nn2C)cc1,"inconclusive: 22.4 µM [inhibitor, partial curve, poor fit]",–
CCOc1ccc(NC(=O)Cn2c(=O)n(-c3cccc(Cl)c3)c(=O)c3c2c2cc(C)ccc2n3C)cc1,–,inactive: -8.55% [at 46.1 µM]
Cc1ccc(S(=O)(=O)/N=C(/Nc2cccc(C(=O)O)c2)c2ccccc2)cc1,–,inactive: -0.143% [at 46.1 µM]
O=C(CSc1nnc(-c2ccncc2)n1CC1CCCO1)NCc1ccccc1 (stereo not given),"inconclusive: 35.5 µM [activator, single point]",–
CCCCCC(=O)Nc1ccc2oc(-c3ccncc3)nc2c1,"inconclusive: 35.5 µM [inhibitor, partial curve, poor fit]",–
COc1ccc2nc(SCC(=O)NCC(F)(F)F)[nH]c2c1,"inconclusive: 3.16 µM [inhibitor, single point]",–
O=c1[nH]c(=O)n(-c2ccccc2)c2c1C(C(F)(F)F)(C(F)(F)F)N=C(CCC1CCCCC1)N2,"inconclusive: 12.6 µM [activator, single point]",–
CSc1nc(-c2ccccc2)nn1S(=O)(=O)c1ccc(Cl)cc1,–,inactive: -14.8%
O=C(CN1C(=O)c2ccccc2S1(=O)=O)Nc1ccccc1,"inconclusive: 0.0231 µM [inhibitor, full curve, poor fit]",–
O=C(N/N=C\c1ccc(OCC(=O)N2CCCC2)cc1)C(=O)Nc1ccccc1F,"inconclusive: 7.08 µM [activator, partial curve]",–
C=CCOc1c(Br)cc(/C=N/O)cc1OCC,"inconclusive: 20.6 µM [inhibitor, single point]",–
COc1ccc(-c2cc(C(=O)Nc3cccnc3)no2)cc1OC,"inconclusive: 6.31 µM [activator, partial curve, poor fit] and inconclusive: 29.1 µM [inhibitor, single point]",–
COC(=O)CCN(C(=O)c1ccc(N2CCCCC2)c([N+](=O)[O-])c1)c1ccccn1,"inconclusive: 3.55 µM [activator, single point]",–
COC(=O)/C(=N/Nc1ccc(C)cc1)N1CCCc2ccccc21,"inconclusive: 12.6 µM [inhibitor, partial curve]",–
